From article PMC11115282
No constants are given. Whether binding was seen depends on the method and setting. Binding seen in cells or lysates may run through a third protein. Some entries that bind do so weakly or less than the wild type. Sequences can lack the tags named with a protein.

Target: zebrafish tbk1, Flag- or Myc-tagged (zebrafish)
Assay: co-IP; HEK293T cells in 100-mm dishes transfected with the indicated plasmids (4 μg each), 24 h; total cell lysates immunoprecipitated with anti-Flag or anti-HA antibody-conjugated agarose beads; immunoblot for the tags; for the domain mapping (Fig 5A-B) cells were treated with 3-MA for 8 h and IP was with anti-HA beads

B1: zebrafish myosin-regulated light chain interacting protein b (mylipb), Myc- or Flag-tagged (protein, UniProt Q05AK5 1-464)
chain: MLCHITRPDSVVLEVEVDPKANGEDILNKICQKMGIIEVDYFGLQFTGTKGESLWMNLRNRICQEVDCVSPCRLRLRVKFFVEPHLILQEQTRHLFLMHVKEEIIKGSLRLDAEQAIELCALLAQAEFGDYKQNTAKYCYSQIYGQDPSHDTINTISLKHKSLEGVSQASAEYQALQLVSSLTYYGVEWHFARDSEGQQLLIGVGQEGLFVCKSDFTPIERLMYPVIQMATQSGRNVYVTITKDNGDSVVLLFKFVSPSAANGLYRAITEIHAFYRCDTVMSTVKMQYSRDFKGHLASLFLNESIDLGKRYIFDIQRTSKEVYDRTRRALFNAGVSVNGRGISRSLLRQTKVDREERMCVDCRETHVLKEKLQRLQEALTCALCCEQEISAAFCPCGHMFCCYNCASQLQCCPVCRSEVDRVQHVYLPTCASLLGLAEAKTTNSVLRRTGISEDCANKENARQM
  binding: binds
